Measurements as given in article PMC9532951, “Identification and characterization of a novel SNAT2 (SLC38A2) inhibitor reveals synergy with glucose transport inhibition in cancer cells” (Frontiers in Pharmacology, 2022).
Several values for one entry are separate records, joined by “and”; a condition that tells them apart may be missing. Equal entries are not always repeated. Further values from the same series stand in other lists.

System: SNAT1/2
Experiment: FMP assay: depolarisation by amino acid substrates in amino acid depleted HCC1806 cells
Format: cell-based, human
Protocol: The FLIPR Membrane Potential Blue Explorer Kit (Molecular Devices) was used to characterise inhibitors and to optimise a high-throughput compound screen. Cells were seeded at approximately 60,000 cells/well on a 96-well plate and allowed to attach and grow overnight in a cell incubator. […] Cells were then washed once with mHBSS and incubated with 50 µl of the mHBSS-resuspended FMP assay dye and 50 µl of mHBSS (with or without inhibitors) and incubated at room temperature for 30 min. The plate was then placed in an EnSpire Multimode plate reader (PerkinElmer) and four sequential measurements of fluorescence were recorded as a baseline reference. Immediately after the baseline measurements were taken, 25 µl of 5 mM glutamine dissolved in mHBSS was injected into each well and the plate was shaken orbitally for 5 s before a series of consecutive fluorescence measurements were taken. The excitation wavelength was set to 530 nm and the emission was detected at 565 nm. […] After the assay was complete, the liquid content of the plate was carefully removed, and the cell monolayer inspected to ensure it remained intact throughout the course of the assay.

With `NC(=O)CC[C@H](N)C(=O)O` [Glutamine, glutamine] the FMP fluorescence reading (amino acid 1 mM final, t=0 s) was 55265 and 57234 and 43363, the FMP fluorescence reading (amino acid 1 mM final, t=15 s) was 99640 and 105103 and 91523 and the FMP fluorescence reading (amino acid 1 mM final, t=30 s) was 105671 and 110267 and 95206. The FMP fluorescence reading (amino acid 1 mM final, t=45 s) was 110250 and 114911 and 97441, the FMP fluorescence reading (amino acid 1 mM final, t=60 s) was 114028 and 117820 and 99608 and the FMP fluorescence reading (amino acid 1 mM final, t=75 s) was 116240 and 119431 and 100452. For the same molecule, the FMP fluorescence reading (amino acid 1 mM final, t=90 s) was 118472 and 121213 and 100570, the FMP fluorescence reading (amino acid 1 mM final, t=105 s) was 119889 and 121546 and 101339 and the FMP fluorescence reading (amino acid 1 mM final, t=120 s) was 120223 and 122455 and 100682. For the same molecule, the FMP fluorescence reading (amino acid 1 mM final, t=135 s) was 120424 and 122015 and 100479, the FMP fluorescence reading (amino acid 1 mM final, t=-15 s) was 55644 and 57261 and 43139 and the FMP fluorescence reading (amino acid 1 mM final, t=-30 s, replicates 1-3) was 55434 and 57450 and 43367. The FMP fluorescence reading (glutamine 0.01mM, t=0 s) was 66215 and 65024 and 66732, the FMP fluorescence reading (glutamine 0.01mM, t=15 s) was 68981 and 67242 and 69177 and the FMP fluorescence reading (glutamine 0.01mM, t=30 s) was 68740 and 68354 and 69059. The FMP fluorescence reading (glutamine 0.01mM, t=45 s) was 68835 and 68642 and 69775, the FMP fluorescence reading (glutamine 0.01mM, t=120 s) was 69704 and 70034 and 70486 and the FMP fluorescence reading (glutamine 0.01mM, t=135 s) was 70142 and 69864 and 70651. The FMP fluorescence reading (glutamine 0.01mM, t=-15 s) was 66333 and 65865 and 67292, the FMP fluorescence reading (glutamine 0.01mM, t=-30 s) was 67800 and 66826 and 67392 and the FMP fluorescence reading (glutamine 0.03mM (c24-c26), t=0 s) was 67482 and 69910 and 73977. The FMP fluorescence reading (glutamine 0.03mM (c24-c26), t=15 s) was 77008 and 79804 and 81995, the FMP fluorescence reading (glutamine 0.03mM (c24-c26), t=30 s) was 76301 and 79843 and 82364 and the FMP fluorescence reading (glutamine 0.03mM (c24-c26), t=45 s) was 76830 and 80238 and 83473. The FMP fluorescence reading (glutamine 0.03mM (c24-c26), t=120 s) was 78392 and 82423 and 85112, the FMP fluorescence reading (glutamine 0.03mM (c24-c26), t=135 s) was 78240 and 82097 and 85813 and the FMP fluorescence reading (glutamine 0.03mM (c24-c26), t=-15 s) was 68231 and 70451 and 74293. The FMP fluorescence reading (glutamine 0.03mM (c24-c26), t=-30 s) was 69790 and 71409 and 75110, the FMP fluorescence reading (glutamine 0.03mM (last group, c32-c34), t=0 s) was 64896 and 71130 and 70601 and the FMP fluorescence reading (glutamine 0.03mM (last group, c32-c34), t=15 s) was 63644 and 69883 and 70816. For the same molecule, the FMP fluorescence reading (glutamine 0.03mM (last group, c32-c34), t=30 s) was 63367 and 69517 and 70927, the FMP fluorescence reading (glutamine 0.03mM (last group, c32-c34), t=45 s) was 63632 and 69691 and 70477 and the FMP fluorescence reading (glutamine 0.03mM (last group, c32-c34), t=120 s) was 64400 and 70855 and 71312. For the same molecule, the FMP fluorescence reading (glutamine 0.03mM (last group, c32-c34), t=135 s) was 64630 and 71114 and 71588, the FMP fluorescence reading (glutamine 0.03mM (last group, c32-c34), t=-15 s) was 65794 and 71804 and 71241 and the FMP fluorescence reading (glutamine 0.03mM (last group, c32-c34), t=-30 s) was 66933 and 72549 and 72536. The FMP fluorescence reading (glutamine 0.1mM, t=0 s) was 65099 and 69734 and 72884, the FMP fluorescence reading (glutamine 0.1mM, t=15 s) was 85390 and 92235 and 93443 and the FMP fluorescence reading (glutamine 0.1mM, t=30 s) was 85934 and 93652 and 95056. The FMP fluorescence reading (glutamine 0.1mM, t=45 s) was 87649 and 95641 and 96965, the FMP fluorescence reading (glutamine 0.1mM, t=120 s) was 92360 and 99218 and 101114 and the FMP fluorescence reading (glutamine 0.1mM, t=135 s) was 92822 and 99808 and 101354. The FMP fluorescence reading (glutamine 0.1mM, t=-15 s) was 65493 and 69983 and 73162, the FMP fluorescence reading (glutamine 0.1mM, t=-30 s) was 66543 and 70613 and 73701 and the FMP fluorescence reading (glutamine 0.3mM, t=0 s) was 63230 and 68101 and 73092. For the same molecule, the FMP fluorescence reading (glutamine 0.3mM, t=15 s) was 94722 and 99977 and 102997, the FMP fluorescence reading (glutamine 0.3mM, t=30 s) was 95486 and 103375 and 106040 and the FMP fluorescence reading (glutamine 0.3mM, t=45 s) was 97739 and 105827 and 109624. The FMP fluorescence reading (glutamine 0.3mM, t=120 s) was 102721 and 112486 and 115660, the FMP fluorescence reading (glutamine 0.3mM, t=135 s) was 102824 and 112256 and 116184 and the FMP fluorescence reading (glutamine 0.3mM, t=-15 s) was 63460 and 68717 and 73527. The FMP fluorescence reading (glutamine 0.3mM, t=-30 s) was 64636 and 69388 and 73893, the FMP fluorescence reading (glutamine 1mM, t=0 s) was 64957 and 68914 and 75196 and the FMP fluorescence reading (glutamine 1mM, t=15 s) was 102506 and 107666 and 117982. For the same molecule, the FMP fluorescence reading (glutamine 1mM, t=30 s) was 106597 and 112096 and 122847, the FMP fluorescence reading (glutamine 1mM, t=45 s) was 109985 and 116885 and 125847 and the FMP fluorescence reading (glutamine 1mM, t=135 s) was 119060 and 127291 and 135312. The FMP fluorescence reading (glutamine 1mM, t=-15 s) was 66108 and 69945 and 76018, the FMP fluorescence reading (glutamine 1mM, t=-30 s) was 67506 and 70513 and 76707 and the FMP fluorescence reading (glutamine 3mM, t=0 s) was 71663 and 68445 and 71255. The FMP fluorescence reading (glutamine 3mM, t=15 s) was 117875 and 110129 and 113705, the FMP fluorescence reading (glutamine 3mM, t=30 s) was 124251 and 115455 and 120082 and the FMP fluorescence reading (glutamine 3mM, t=45 s) was 129371 and 120106 and 125123. The FMP fluorescence reading (glutamine 3mM, t=120 s) was 132146 and 137891, the FMP fluorescence reading (glutamine 3mM, t=135 s) was 141472 and 132355 and 138466 and the FMP fluorescence reading (glutamine 3mM, t=-15 s) was 72061 and 68571 and 72428. For the same molecule, the FMP fluorescence reading (glutamine 3mM, t=-30 s) was 72855 and 69592 and 73406, the FMP fluorescence reading (glutamine 10mM, t=0 s) was 70338 and 70210 and 71665 and the FMP fluorescence reading (glutamine 10mM, t=15 s) was 107298 and 115961 and 116003. The FMP fluorescence reading (glutamine 10mM, t=30 s) was 113210 and 122593 and 123254, the FMP fluorescence reading (glutamine 10mM, t=45 s) was 119118 and 128022 and 129115 and the FMP fluorescence reading (glutamine 10mM, t=120 s) was 134666 and 142907 and 144218. The FMP fluorescence reading (glutamine 10mM, t=135 s) was 136398 and 144190 and 144688, the FMP fluorescence reading (glutamine 10mM, t=-15 s) was 70457 and 71078 and 72093 and the FMP fluorescence reading (glutamine 10mM, t=-30 s) was 72656 and 71410 and 72899.
